Article PMC6989399, “A drug library screen identifies Carbenoxolone as novel FOXO inhibitor that overcomes FOXO3-mediated chemoprotection in high-stage neuroblastoma” (Oncogene, 2019)
For at least one entry, the source does not settle the construct or the ends of the probe. Where cells or extracts were used, other partners may take part. No signal at the amounts used counts as a negative. A weaker result is weaker than the reference pair of the same experiment.

Sequences of proteins named here, by UniProt entry; tags and fusion partners are left off. A change or cut given only in a name is not applied to a line headed by its entry.
UniProt O43524: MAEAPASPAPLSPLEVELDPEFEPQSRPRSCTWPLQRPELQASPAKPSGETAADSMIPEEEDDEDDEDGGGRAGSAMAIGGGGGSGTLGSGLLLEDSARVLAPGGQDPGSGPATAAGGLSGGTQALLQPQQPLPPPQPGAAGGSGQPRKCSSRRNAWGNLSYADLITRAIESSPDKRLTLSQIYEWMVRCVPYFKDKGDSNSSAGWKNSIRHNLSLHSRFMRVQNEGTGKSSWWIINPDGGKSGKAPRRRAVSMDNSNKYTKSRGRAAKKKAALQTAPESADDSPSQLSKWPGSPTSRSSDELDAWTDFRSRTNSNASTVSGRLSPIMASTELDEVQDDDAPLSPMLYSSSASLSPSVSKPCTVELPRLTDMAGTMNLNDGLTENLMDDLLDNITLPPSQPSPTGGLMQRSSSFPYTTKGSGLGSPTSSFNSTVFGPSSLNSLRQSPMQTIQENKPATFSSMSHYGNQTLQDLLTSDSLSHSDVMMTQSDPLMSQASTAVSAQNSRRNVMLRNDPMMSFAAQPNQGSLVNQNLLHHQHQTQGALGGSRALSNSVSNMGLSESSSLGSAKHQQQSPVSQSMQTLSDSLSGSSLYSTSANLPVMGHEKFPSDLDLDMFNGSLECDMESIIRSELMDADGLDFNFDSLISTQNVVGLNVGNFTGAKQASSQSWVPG

Target: FOXO3(A3)ERtm (UniProt O43524)
Assay: EMSA
Conditions: FAM-EMSA: 20 mM Tris pH 7.5, 100 mM NaCl, 1 mM EDTA, 5% glycerol, 30 min RT, 5% PAGE 0.5x TBE, protein in a lysate after overexpression

Sequence	binding result (30 ug whole-cell extract, 4OHT)	binding result (cells treated with CBX, 120-155 uM needed (10% FCS))
AGCAAAGTTGGGGTTGATAATG (double strand) [FoxP3-mut-FAM]	no binding	
AGCAAAGTTGTTTTTGATAATG (double strand) [FoxP3-FAM]	binds	binds more weakly
